Measured values published in PubChem BioAssay AID1347423 (Functional Genomics Laboratory (NCATS/FGL), 2020).
In all, about 52,000 sequences went through this assay and about 210 (0.4%) were called active.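 Rule for the calls: active = gene whose silencing raises cell survival under the drug, median off-target-corrected z-score across its silencing RNAs 2 or more; inactive = the rest.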 The list shows a part of the results.

Test: Resistance to Poly (ADP-Ribose) Polymerase inhibitor: Gene Identification via Genome-wide siRNA Screen
Details: mouse BRCA2 R2336H ES cells, olaparib, CellTiter-Glo viability; stronger effect = higher value
In short: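 Genome-wide siRNA screen (3 siRNAs/gene, 20 nM) in mouse ES cells carrying hypomorphic BRCA2 R2336H; olaparib 500 nM added 48 h post-transfection, CellTiter-Glo viability 72 h later. Normalized to plate-median negative control; MAD z-scores, gene median, seed-adjusted.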

Row | Sequence | z-score
1 | GGAUAUAAGGAAAACCAGATT against Rab2 | inactive: -1.33
2 | GGAGGAAGUGUUCUUUUCCTT against Psg17 | inactive: -0.33
3 | GGAGAAACUGGCAGACCUUTT against 2900091E11Rik | inactive: -1.41
4 | GGCCACUCAACUCUGUACUTT against Atxn7l1 | inactive: 3.1
5 | GGCAUAACCAAAAGAAAGUTT against 4933427E11Rik | inactive: -1.58
6 | GGUUGUGUAUGUGGAAAGUTT against Ppp2cz | inactive: -0.618
7 | GGUGGGAGUAGUGUUUGUGTT against Ly6f | inactive: -0.433
8 | GGGACAAUACAUUGAUAGCTT against V1rh7 | inactive: -0.359
9 | GGAGGGAGACCUUAUCUUATT against Tjp3 | inactive: 0.954
10 | CGGCACUGACUUAUUGUUCTT against Olfr574 | inactive: -0.0658
11 | GGAGGACUAGGAGUGAUUGTT against 2310009E04Rik | inactive: -0.544
12 | GGCUGAUGUUAACAUUGAATT against Cdkn2c | inactive: -1.29
13 | CCACUCCAAGACCUACUCCTT against Large | inactive: 2.22
14 | GCAGGACAACCAGCUGGUATT against 1110004B13Rik | inactive: 0.431
15 | GGUAGUUCCUAAUAUUACCTT against Tlr4 | inactive: 1.59
16 | GCCAGGAUCCAUCAAUUCCTT against Olfr376 | inactive: -0.918
17 | GGGACAAAUUAACGACAUATT against Angptl3 | inactive: 0.292
18 | GGUAAAAAGGGUGUGUACUTT against Pdzk1 | inactive: -1.68
19 | GCCUUGAAGAGUCUCAUAUTT against Farp1 | inactive: -0.245
20 | GCAAUAUUUUCCCUAGAUCTT against V1rf1 | inactive: 0.292
21 | GCAUGGAGGACUUUGUCACTT against 1190002L16Rik | inactive: -2.08
22 | CGACCAGAUGAACUGGUGUTT against 1500002O20Rik | inactive: 0.483
23 | GGAAACUACUACAAUCAAGTT against Pigl | inactive: 0.246
24 | CGGAUCACAUUGCAUAAAATT against Calcrl | inactive: 0.747
25 | GGCAUGUCCAAGGAAUACUTT against Snrpg | inactive: -0.248
26 | CCGUAUAAGAAGCUUUGUUTT against F730015K02Rik | inactive: -0.787

Row | Sequence | z-score
27 | GUACCUGAACUCAACUGAGTT against Gpr43 | inactive: -2.14
28 | CGAAUUCAUACCAGUGUGCTT against Ndufa10 | inactive: -0.486
29 | GGGCACAACUUCAACAGCUTT against Cklfsf8 | inactive: 1.53
30 | GGGUUUAGAAAGAUGAAUGTT against E130107N23Rik | inactive: -0.397
31 | GGUCGGUGUUUUAUCUGCUTT against BC019537 | inactive: -1.19
32 | GGUCCUACAGUCCAUAGGUTT against B230374F23Rik | inactive: 0.542
33 | CCCUCUCUGGGACUACAUATT against Zfp395 | inactive: -1.48
34 | GGCUACUCAGUCCUAAGCATT against Kcns2 | inactive: -0.384
35 | CCGUCAGAAUCAAGCUUUUTT against MGC86034 | inactive: -1.1
36 | GUGUGCUAUGAGCAAUGCCTT against Sprr2a | inactive: 1.14
37 | GGUAAAUCUCAGCUUUUCUTT against Pcdhga3 | inactive: 0.868
38 | GGCAGAUUUAGUUUCUUUUTT against A930026L03Rik | inactive: 1.28
39 | CGAACAGAUCCGAAAAUCUTT against 4933430J11 | inactive: -0.699
40 | GCGAGUGAUAAGACAGCCATT against LOC208158 | inactive: -0.501
41 | CUUACAGCCCUUAUUGGAGTT against Olfr1203 | inactive: 0.0972
42 | GGGUGGCAUCAUGCAAAGATT against Hdac8 | inactive: 1.28
43 | GCACCUCUUGGACAAAAUUTT against Tsc1 | inactive: -0.196
44 | GGAAAAACUCCUUUUCCACTT against Shcbp1 | inactive: 0.251
45 | GGUUUAAGAAUGAAGUGGATT against Mtmr3 | inactive: -0.196
46 | GGAAGAAAAGGUAUUUCUUTT against Rpo2tc1 | inactive: -2.74
47 | GCGACUCCUAUAAUUUCUATT against Rpa3 | inactive: -0.154
48 | GGAUGUGACGCACACAUGUTT against 5730403B10Rik | inactive: -0.0428
49 | GGAUUUCAAAUCAAGAUGGTT against Tde1 | inactive: 1.03
50 | GGCACACACUCCCUGACAATT against Cst3 | inactive: 0.688
51 | CCUGCUCAACGGAGACCAUTT against Hmx3 | inactive: 0.71
52 | AUCGUAUUGCUCUUUUACGTT against Gm1705 | inactive: 0.452

Row | Sequence | z-score
53 | GGAAGUCACUAAUGAAAUGTT against Tbx19 | inactive: 0.719
54 | GCUGGGAAAUCACACUAAGTT against Olfr1427 | inactive: 0.342
55 | GGUGGCCAAGAAAACAUGUTT against Rims3 | inactive: -0.503
56 | GGGCAGAAUCCAUUGACAATT against 2210412K09Rik | inactive: -0.485
57 | GGCUUAGUUGGCUAUUACATT against Tbc1d12 | inactive: -2.07
58 | GGGCCCAUCUUUUUCUACATT against Dpp7 | inactive: -0.145
59 | GCCUGAUCUACUGUGGUCCTT against Olfr1347 | inactive: 0.259
60 | GGCUCAGUUAAACUUACUGTT against Pak2 | inactive: -0.198
61 | GCUGAAUGCGACAUUUAUATT against Hk2 | inactive: 1.81
62 | CCUUAAGAUGAGCAUUGCUTT against Chchd5 | inactive: -0.116
63 | GCAUCGCUAAUCCUGAGUUTT against Itgb2 | inactive: 0.9
64 | GGUUCACCUGGAUUCUGCATT against Sfrs16 | inactive: -1.62
65 | GGUCUCUAAAUCCUGCUUUTT against V1rc28 | inactive: 0.0164
66 | GGCAGAGAAAAGAAGAAGATT against Abcb4 | inactive: -1.54
67 | GCGAUGGAACUGUACGAGATT against 1810034K20Rik | inactive: 0.046
68 | GGAUGCAUGGCUCAAUAUUTT against Olfr1164 | inactive: -1.53
69 | GGAGGUCAGUGUGACUUCATT against Taf1c | inactive: -2.82
70 | GGCUCAGAUGUAUUUCAAATT against 2610529C04Rik | inactive: -0.391
71 | GGAUCGUUUCCUCUCAUCATT against Cd4 | inactive: -0.361
72 | GCUGUUCUAUCAGACCUUUTT against Cyp2b10 | inactive: 1.07
73 | GGAGUUCCCGCUUACUCUGTT against 9430022A14 | inactive: 0.636
74 | GGCAAAAUCGGAGACUUUCTT against Exosc10 | inactive: 0.0473
75 | GGUUGCUAGUGCUAAGGACTT against Pdlim2 | inactive: -1.8
76 | GGAGCAAACUUGCUCAGUUTT against 4922504H04Rik | inactive: -1.78
77 | GGUUUUGGGCACAGCUGGUTT against Cryz | inactive: 1.79
78 | GCGAGCCUUUGAGAAGAAUTT against Emx1 | inactive: 0.661

As entered above.
GCUGAAUGCGACAUUUAUATT against Hk2 – z-score: inactive: 1.81
GCGAUGGAACUGUACGAGATT against 1810034K20Rik – z-score: inactive: 0.046
GCCUGAUCUACUGUGGUCCTT against Olfr1347 – z-score: inactive: 0.259
GGCAAAAUCGGAGACUUUCTT against Exosc10 – z-score: inactive: 0.0473

(continued)

Row | Sequence | z-score
79 | GGGACAUGAAAUAAAUGUCTT against Mag | inactive: -0.658
80 | GGGAGUCCUUAAAAGUCGUTT against Mas1 | inactive: -1.14
81 | GGGAUAAAAACAGUGGCUUTT against Slc7a12 | inactive: -0.204
82 | GGCAUGUUUUGGGAAGAGCTT against Btbd6 | inactive: 1.52
83 | GGAAAAUCAGACCAUACUGTT against Arl3 | inactive: -1.98
84 | GGUUGUUCAGAUCUUCUGATT against Cias1 | inactive: 0.0572
85 | GCAAUAACUGGAAUAAUGGTT against Slc40a1 | inactive: 0.685
86 | CCAUUCUCCCGAGAAACUATT against Ela2 | inactive: 0.263
87 | GGCGAUGAAGAAGUAAUUUTT against Dip3b | inactive: -1.21
88 | CCUUACCACAGCCUCAAUGTT against 6.33E+19 | inactive: -0.556
89 | GGACAUAAAGGUAAAAUGATT against Zfp275 | inactive: -1.02
90 | CCACCAAGGAGACAUAGAUTT against Nans | inactive: 0.745
91 | GGAGAGGUCAGAAUAAUAATT against BC020151 | inactive: -1.91
92 | CGGAUUAGAAGAGCCAAACTT against Cd59b | inactive: -0.462
93 | CGAGAUUGCCAAGGCUCAATT against Hint1 | inactive: 0.374
94 | GGCAAAGUAUAAAGAAGUATT against Gkap1 | inactive: 4.97
95 | GCUGGUUUCGGACAUAGCCTT against Actn3 | inactive: 1.54
96 | GGAGGAGCUUAGCCCUUUUTT against Bad | inactive: 0.77
97 | GGAACACAUUGGGUAUGCCTT against 2410004C24Rik | inactive: -0.788
98 | GGCAUCAGUGAGGUUUGUCTT against Olfr420 | inactive: -1.12
99 | GGACCGACCAAGUUUUUCATT against 2410018G23Rik | inactive: -0.329
100 | GGACGAUCAUGACAAGAUGTT against Psmb2 | inactive: -3.45
101 | GCUCGAAAACUGAGAGUUATT against Pcdhgb1 | inactive: 1.92
102 | CCAAGAUACCUUUUUUGAGTT against Paox | inactive: 1.31
103 | GGUUCAGAAGAGUCAGGAGTT against 5730551F12Rik | inactive: -0.378
104 | GGAAUUAUGUGGAAAACAGTT against Mapk9 | inactive: 0.0447
